Results are given in words; binding and its absence hold for the method and conditions named. Some entries that bind do so weakly or less than the wild type.

By UniProt entry, the sequences of proteins in these tests, tags left out. Residues count along the entry.
UniProt P16234, residues 24-1089: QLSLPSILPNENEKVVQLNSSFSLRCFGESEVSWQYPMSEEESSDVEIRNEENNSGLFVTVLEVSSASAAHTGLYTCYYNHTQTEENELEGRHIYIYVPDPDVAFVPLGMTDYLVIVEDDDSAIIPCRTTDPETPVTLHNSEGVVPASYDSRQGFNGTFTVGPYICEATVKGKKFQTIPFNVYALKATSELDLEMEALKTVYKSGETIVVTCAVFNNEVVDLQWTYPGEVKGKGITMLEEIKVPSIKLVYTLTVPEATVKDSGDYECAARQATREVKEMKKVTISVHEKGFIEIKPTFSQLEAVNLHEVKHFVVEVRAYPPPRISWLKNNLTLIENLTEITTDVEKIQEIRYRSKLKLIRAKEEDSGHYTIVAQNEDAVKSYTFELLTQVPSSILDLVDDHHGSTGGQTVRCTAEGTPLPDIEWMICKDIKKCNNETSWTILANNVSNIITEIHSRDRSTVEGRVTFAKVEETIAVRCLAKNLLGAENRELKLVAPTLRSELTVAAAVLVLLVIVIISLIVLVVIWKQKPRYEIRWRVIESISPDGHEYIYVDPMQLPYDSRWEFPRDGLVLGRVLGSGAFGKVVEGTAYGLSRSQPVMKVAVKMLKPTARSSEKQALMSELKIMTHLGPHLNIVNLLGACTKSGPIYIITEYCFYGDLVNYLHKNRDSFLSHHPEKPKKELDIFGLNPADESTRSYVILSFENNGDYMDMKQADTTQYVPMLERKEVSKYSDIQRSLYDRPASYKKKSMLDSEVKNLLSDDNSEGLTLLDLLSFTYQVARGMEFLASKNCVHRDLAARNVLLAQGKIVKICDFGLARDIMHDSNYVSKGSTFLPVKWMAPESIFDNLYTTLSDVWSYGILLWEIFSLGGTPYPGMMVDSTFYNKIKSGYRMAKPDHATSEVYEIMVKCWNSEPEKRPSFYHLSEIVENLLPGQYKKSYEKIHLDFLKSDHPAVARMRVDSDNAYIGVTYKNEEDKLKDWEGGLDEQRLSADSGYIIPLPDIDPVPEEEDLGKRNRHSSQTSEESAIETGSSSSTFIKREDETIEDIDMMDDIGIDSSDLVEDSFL

The target of the test is PDGFRA, endogenous, on 1079 glioblastoma cells (human (endogenous in 1079 glioblastoma cells)) (UniProt P16234). As to the kind of experiment: flow cytometry on cells; competition binding: 1079 cells incubated with indicated concentrations of Endocan-Alexa488 and PDGF-BB-Alexa647 for 30 min on ice, washed twice with PBS; only the binder purified.

B1: rEndocan labeled with Alexa488 (ligand, UniProt Q9NQ30 20-184)
chain: WSNNYAVDCPQHCDSSECKSSPRCKRTVLDDCGCCRVCAAGRGETCYRTVSGMDGMKCGPGLRCQPSNGEDPFGEEFGICKDCPYGTFGMDCRETCNCQSGICDRGTGKCLKFPFFQYSVTKSSNRFVSLTEHDMASGDGNIVREEVVKENAAGSPVMRKWLNPR
modifications: Alexa Fluor 488 label
With B1, the binding entry was “binds”.

The values above are taken from paper PMC11707362, “Endothelial-secreted Endocan activates PDGFRA and regulates vascularity and spatial phenotype in glioblastoma” (Nature Communications, 2025).
